In US20150269307A1, “TARGET INHIBITION MAP SYSTEM FOR COMBINATION THERAPY DESIGN AND METHODS OF USING SAME” (Texas Tech University System, priority 2014, published 2015):

Tested on: human patient-derived xenografts
Assay: Xenograft-derived chemical screen (Supplemental Table 3)
Format: cell-based
Details: 60 agent PPTI screen
Protocol: Three chemical screens were applied to the U23674 primary tumor cell culture. […] The target inhibition profile is a quantified description of the inhibitory properties of the compound on the numerous protein targets preset on the PPTI screen.
To screen the chemical agents, cell cultures were plated in 384 well plates at a seeding density of 2000 cells per well over graded concentrations of the numerous compounds. The chemical concentrations were between 10 nM and […] depending on the activity range of the compounds. The cells were incubated in DMEM supplemented with 1% penicillin streptomycin, and 10% fetal bovine serum for 72 hours. Chemical sensitivity was determined by an MTS cell viability assay after the 72 hour incubation period. The sensitivity responses at the different concentrations were used to determine the chemical IC50 using a hill curve fitting algorithm with variable hill slope coefficients.

O=C(CCCCCCC(=O)Nc1ccccc1)NO [vorinostat]
IC50: 1970 nM
